Measured values reported in PubChem BioAssay AID1487 (National Center for Advancing Translational Sciences (NCATS), 2009).
The other results are listed elsewhere or left out. Further columns of the screen follow, without active or inactive calls. Compounds called inactive in the main read-out are mostly missing here. Potencies come from curve fits of mixed quality, noted in brackets.

Assay: qHTS Assay for Modulators of Lamin A Splicing
Details: HeLa LMNA splicing GFP/RFP minigene ratio, 48 h
Summary of the method: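 Read-out is the ratio of GFP to DsRed2 object intensity, acquired by 488 nm laser-scanning cytometry on HeLa lamin A-EGFP minigene reporter cells. Compound incubation 48 hrs at 37 °C in Opti-MEM with 2% FBS; DMSO 0.5% final.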

[1] = measured here: GFP splicing reporter channel
[2] = measured here: RFP viability control channel

Row | SMILES | AC50 [1] | AC50 [2]
1 | C/C(=C\C(=O)c1ccc(Br)cc1)NCc1ccc(C)cc1 | 11.2 µM [rising, single point] | 14.1 µM [rising, single point]
2 | COc1ccc(OCC(=O)Nn2c(-c3cccc(OC)c3)nc3ccccc3c2=O)cc1 | 11.2 µM [rising, partial curve] | 
3 | COc1ccc(F)cc1S(=O)(=O)Nc1cccc(C(=O)O)c1 | 6.31 µM [falling, single point] | 0.794 µM [falling, partial curve]
4 | CC(O)(CS(=O)(=O)Cc1cccc(C(F)(F)F)c1)C(=O)Nc1cccc(C(F)(F)F)c1 (stereo not given) |  | 12.6 µM [falling, partial curve]
5 | Cc1nc2[nH]c(=S)n(C)c(=O)c2nc1C | 4.47 µM [rising, single point] | 
6 | CCC(=O)C1=C(c2ccc(F)cc2)N(C(=O)CC)n2cnnc2S1 |  | 1.12 µM [rising, partial curve]
7 | CCN(CC)CCCN1C(=O)C(=O)/C(=C(/O)c2ccccc2)C1c1cc(OC)ccc1OC (stereo not given) | 0.0447 µM [rising, full curve, poor fit] | 0.0501 µM [rising, full curve, poor fit]
8 | CCc1ccccc1NC(=O)CN(c1ccccc1)S(=O)(=O)c1ccsc1C(=O)OC | 0.00316 µM [falling, full curve, poor fit] | 0.00282 µM [falling, full curve, poor fit]
9 | O=C(NCc1ccc2c(c1)OCO2)c1ccc2c(c1)N(Cc1ccccc1F)C(=O)c1ccccc1S2 | 0.141 µM [rising, full curve, poor fit] | 
10 | O=C1NCC(COCC2CC=CCC2)O1 (stereo not given) | 14.1 µM [falling, single point] | 
11 | Fc1cccc(Cl)c1Cn1nnc2c(NCc3ccncc3)ncnc21 |  | 0.316 µM [falling, full curve, poor fit]
12 | Cc1ccc(NC2=C(Cl)C(=O)OC2OC(=O)c2ccccc2)c(C)c1 (stereo not given) | 6.31 µM [rising, single point] | 
13 | CCOC(=O)c1c(-n2cccc2)sc2c1CCCC2=O |  | 35.5 µM [rising, single point]
14 | COc1ccc2c(Cl)c(C(=O)N/N=C/c3c(C)[nH]c4ccccc34)sc2c1 |  | 35.5 µM [rising, single point]
15 | COc1cc(C(=O)OCC(=O)Nc2c(F)cccc2F)cc(OC)c1C |  | 0.00447 µM [rising, full curve, poor fit]
16 | C=CCOC(=O)C1=C(C)NC(SCC(=O)NC(=O)OCC)=C(C#N)C1c1cccnc1 (stereo not given) |  | 7.08 µM [rising, partial curve, poor fit]
17 | CCn1c(SCc2nc3ccccc3c(=O)[nH]2)nnc1C(C)NC(=O)c1ccccc1F (stereo not given) |  | 35.5 µM [falling, single point]
18 | C/C(=N\NC(=O)c1cc(C)nc2ccccc12)c1ccco1 |  | 35.5 µM [rising, single point]
19 | O=C(CSc1n[nH]c(-c2ccc(S(=O)(=O)NC3CCCCC3)cc2)n1)N1CCCC1 |  | 14.1 µM [rising, partial curve]
20 | COc1ccc(COc2cc(-c3cccc(OC)c3)nc3ccc(NC(=O)c4ccc(N(C)C)cc4)cc23)cc1 |  | 5.01 µM [rising, full curve]
21 | COc1ccc(OCC(=O)O/N=C(\N)c2ccc(OC)c(OC)c2)cc1 |  | 22.4 µM [rising, partial curve, poor fit]
22 | CC(Oc1ccccc1)C(=O)Nc1ccc(S(=O)(=O)NCC2CCCO2)cc1 (stereo not given) |  | 12.6 µM [rising, partial curve, poor fit]
23 | O=C(/C=C/c1ccc2c(c1)OCO2)NCc1ccc(F)cc1 | 0.794 µM [rising, full curve, poor fit] | 
24 | COc1ccccc1-n1c(C)c2c(OC)cccc(=O)c2c1C | 17.8 µM [rising, single point] | 
25 | CC(=O)c1cc(F)c(N2CCN(C(=O)COc3ccccc3F)CC2)cc1C |  | 25.1 µM [rising, single point]
26 | CCCCc1ccc(NS(=O)(=O)c2cccs2)cc1 |  | 12.6 µM [rising, partial curve, poor fit]
27 | COc1cccc(CN2C(=O)c3ccccc3Sc3ccc(C(=O)OCc4ccco4)cc32)c1 | 0.794 µM [rising, full curve, poor fit] | 
28 | CC1=C(C(=O)Nc2ccc([N+](=O)[O-])cc2)C(c2cccc(C(F)(F)F)c2)NC(=S)N1c1ccccc1 (stereo not given) | 35.5 µM [falling, single point] | 15.8 µM [falling, single point]

Row | SMILES | AC50 [1] | AC50 [2]
29 | CCS(=O)(=O)c1nc(S(=O)(=O)c2ccc(Cl)cc2)c(N2CCc3ccccc3C2)s1 |  | 22.4 µM [rising, single point]
30 | CC(NC(=O)c1ccc(OC2CCN(Cc3ccccn3)CC2)cc1)c1ccccc1 (stereo not given) | 35.5 µM [falling, single point] | 14.1 µM [falling, single point]
31 | COc1ccc(N2C(=O)CC(Sc3ccccc3C(=O)O)C2=O)c([N+](=O)[O-])c1 (stereo not given) |  | 11.2 µM [falling, partial curve]
32 | COc1cccc(CSc2nc3n(n2)C(c2cccs2)C(C(=O)Nc2ccccc2C)=C(C)N3)c1 (stereo not given) |  | 20 µM [falling, single point]
33 | CCOc1cc(C(=S)N2CCOCC2)ccc1OS(=O)(=O)c1ccccc1 | 12.6 µM [rising, partial curve, poor fit] | 15.8 µM [rising, single point]
34 | O=C(COc1ccc(Cl)cc1)Nc1ncc([N+](=O)[O-])s1 | 5.62 µM [falling, partial curve] | 17.8 µM [rising, single point]
35 | Cn1c(=O)oc2cc(S(=O)(=O)NCc3ccncc3)ccc21 | 3.16 µM [rising, full curve] | 6.31 µM [rising, partial curve]
36 | O=C(Oc1ccccc1C(=O)Oc1ccccc1)c1cccnc1 |  | 35.5 µM [rising, partial curve]
37 | CCOc1cc(CNCCSc2nnnn2C)cc(Br)c1OCc1ccc(F)cc1 | 15.8 µM [rising, single point] | 35.5 µM [rising, single point]
38 | CCSc1nc2ccccc2n1C(=O)/C=C\c1ccc(OC)c(OC)c1 | 3.55 µM [falling, full curve] | 3.16 µM [falling, full curve]
39 | CCSc1nnc(NC(=O)c2ccccn2)s1 | 14.1 µM [rising, single point] | 4.47 µM [rising, full curve]
40 | O=C(Cc1ccc(F)cc1)NCC1CCCO1 (stereo not given) |  | 14.1 µM [falling, partial curve]
41 | CCOc1ccc(S(=O)(=O)N(C)c2ccc(OCC(=O)Nc3nc4ccccc4s3)cc2)cc1 | 5.01 µM [rising, partial curve] | 3.16 µM [rising, full curve]
42 | COc1cc(SC)ccc1C(=O)NCCOc1ccc(Cl)cc1 | 22.4 µM [rising, single point] | 35.5 µM [rising, single point]
43 | Nc1sc2c(c1C(=O)c1ccccc1)CCCC2 | 35.5 µM [rising, single point] | 35.5 µM [rising, single point]
44 | COC(=O)c1c(-c2cc(OC)c(OC)c(OC)c2)c2ccnc(OCc3ncccn3)c2c(=O)n1Cc1ccnc(C)c1 | 0.0708 µM [falling, full curve, poor fit] | 
45 | CN1CCN(CC(=O)Nc2ccc(Oc3ccccc3)cc2)CC1 |  | 25.1 µM [rising, single point]
46 | O=C(c1ccc(S(=O)(=O)N2CCCCC2)cc1)N1CCN(CCN2C(=O)c3cccc4cccc(c34)C2=O)CC1 | 3.98 µM [falling, partial curve, poor fit] | 
47 | CS(=O)(=O)N(CC(=O)N1CCN(Cc2ccc3c(c2)OCO3)CC1)C1CCCCC1 | 0.0178 µM [rising, full curve, poor fit] | 
48 | COc1ccc(S(=O)(=O)N2CCCC(C(=O)Nc3ccc(OC)c(OC)c3)C2)cc1 (stereo not given) | 12.6 µM [rising, single point] | 31.6 µM [rising, single point]
49 | CCN1CCN(c2ccc(NC(=O)COc3ccccc3Cl)cc2)CC1 |  | 35.5 µM [rising, single point]
50 | CC(C(=O)N1CCc2ccccc21)N1CCc2ccccc2C1 (stereo not given) |  | 11.2 µM [rising, partial curve, poor fit]
51 | CC(=O)C1=C(C)NC(SCC(=O)c2ccc(Cl)cc2Cl)=C(C#N)C1c1ccco1 (stereo not given) | 11.2 µM [rising, partial curve] | 25.1 µM [rising, single point]
52 | COc1ccnc(CSC(N)=Nc2cccc(C(F)(F)F)c2)c1 | 12.6 µM [rising, single point] | 17.8 µM [rising, single point]
53 | Cc1ccccc1NC(=O)c1ccc2nc(Cc3ccccc3)oc2c1 |  | 2.24 µM [falling, partial curve]
54 | Cn1c(SCc2ccc(F)cc2)nc2c([nH]c3ccccc32)c1=O | 0.794 µM [falling, full curve, poor fit] | 0.355 µM [falling, full curve, poor fit]
55 | COc1ccccc1C(=O)Nc1c(C(=O)N(CCN(C)C)Cc2ccco2)oc2ccccc12 | 22.4 µM [falling, partial curve] | 28.2 µM [falling, single point]

Sorted by SMILES length (largest number first): some entries from above
Row | SMILES | AC50 [1] | AC50 [2]
6 | CCC(=O)C1=C(c2ccc(F)cc2)N(C(=O)CC)n2cnnc2S1 |  | 1.12 µM [rising, partial curve]
38 | CCSc1nc2ccccc2n1C(=O)/C=C\c1ccc(OC)c(OC)c1 | 3.55 µM [falling, full curve] | 3.16 µM [falling, full curve]
53 | Cc1ccccc1NC(=O)c1ccc2nc(Cc3ccccc3)oc2c1 |  | 2.24 µM [falling, partial curve]
